# According to patent publication US20250090658A1, “POLYMER ADJUVANT” (Oxford University Innovation Limited, priority 2014, published 2025):
# For at least one compound, name, drawing or mass did not settle the structure.
# How the values were obtained:
# tetramer+ CD8 T cells = assay: Tetramer+ CD8 T cell responses after immunization with protein antigen plus adjuvant; type: in vivo, C57/BL6 mice; conditions: co-administered with OVA and SIV Gag
# [1] = tested on: Listeria monocytogenes expressing OVA (LM-OVA); assay: LM-OVA intravenous challenge, bacterial burden in spleens; type: in vivo; conditions: OVA plus adjuvant days 0 and 14, challenge day 28
structure (smiles),measurement,setting,value
CCOCc1nc2c(N)nc3ccccc3c2n1CC(C)(C)O [R848],CD8 T cell responses compared with protein immunization alone,tetramer+ CD8 T cells,no improvement in CD8 T cell responses or protection
same,protection against infectious challenge with LM-OVA,[1],no improvement in CD8 T cell responses or protection
